# Measurements reported in the supplement of paper PMC8728848.
# The list shows a part of the results.
# B1: Mcg Light Chain Dimer (Homo sapiens), Q6PIK1 (protein)
# chain: MAGFPLLLTLLTHCAGSWGQSLLTQPPSVSGTPGQRVTISCSGSSSNIGINYVYWYQQIPGTAPKLLISTNDQRPSGVPDRFSGSKSGTSASLAIGGLRSEDEAHYYCAAWDDSMSGPGYAFGTGTKVTVLRQPKANPTVTLFPPSSEELQANKATLVCLISDFYPGAVTVAWKADGSPVKAGVETTKPSKQSNNKYAASSYLSLTPEQWKSHRSYSCQVTHEGSTVEKTVAPTECS
# Experiments:
# Assay in all cases: glycan array binding signal (z-score within array); higher = stronger binding
# Conditions in all cases: glycan notation: IUPAC condensed, linker removed
# [1] = molecular target: Man(a1-3)[Man(a1-6)]Man(a1-6)[Man(a1-2)Man(a1-3)]Man(b1-4)GlcNAc(b1-4)GlcNAc
# Summary of the method: (§1)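 From the Consortium for Functional Glycomics database, 3228 arrays were curated, keeping only those whose protein sequence was available. Binding is given as a within-array Z-score averaged across arrays sharing a protein sequence and across linkers. Negative Z-scores can be read as non-binding.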
# [2] = molecular target: Man(a1-3)[Man(a1-6)]Man(a1-6)[Man(a1-3)]Man
# Summary of the method: as §1
# [3] = molecular target: Man(a1-3)[Man(a1-6)]Man(a1-6)[Man(a1-3)]Man(b1-4)GlcNAc(b1-4)GlcNAc
# Summary of the method: as §1
# [4] = molecular target: Man(a1-3)[Man(a1-6)]Man(b1-4)GlcNAc(b1-4)GlcNAc
# Summary of the method: as §1
# [5] = molecular target: Man(a1-6)Man
# Summary of the method: as §1
# [6] = molecular target: Man(b1-4)GlcNAc
# Summary of the method: as §1
# [7] = molecular target: Neu5Ac(a2-3)Gal
# Summary of the method: as §1
# [8] = molecular target: Neu5Ac(a2-3)Gal(b1-3)GalNAc
# Summary of the method: as §1
# [9] = molecular target: Neu5Ac(a2-3)Gal(b1-3)GalNAc(b1-3)Gal(a1-4)Gal(b1-4)Glc
# Summary of the method: as §1
# [10] = molecular target: Neu5Ac(a2-3)Gal(b1-3)GalNAc(b1-3)Gal(b1-4)GlcNAc
# Summary of the method: as §1
# [11] = molecular target: Neu5Ac(a2-3)Gal(b1-3)GalNAc(b1-4)[Neu5Ac(a2-3)]Gal(b1-4)Glc
# Summary of the method: as §1
# [12] = molecular target: Neu5Ac(a2-3)Gal(b1-3)GalNAc6S
# Summary of the method: as §1
# [13] = molecular target: Neu5Ac(a2-3)Gal(b1-3)GlcNAc
# Summary of the method: as §1
# [14] = molecular target: Neu5Ac(a2-3)Gal(b1-3)GlcNAc(b1-3)Gal(b1-3)GlcNAc
# Summary of the method: as §1
# [15] = molecular target: Neu5Ac(a2-3)Gal(b1-3)GlcNAc6S
# Summary of the method: as §1
# [16] = molecular target: Neu5Ac(a2-3)Gal(b1-3)[Fuc(a1-4)]GlcNAc
# Summary of the method: as §1
# [17] = molecular target: Neu5Ac(a2-3)Gal(b1-3)[Fuc(a1-4)]GlcNAc(b1-3)Gal(b1-4)[Fuc(a1-3)]GlcNAc
# Summary of the method: as §1
# [18] = molecular target: Neu5Ac(a2-3)Gal(b1-3)[Neu5Ac(a2-3)Gal(b1-4)]GlcNAc
# Summary of the method: as §1
# [19] = molecular target: Neu5Ac(a2-3)Gal(b1-3)[Neu5Ac(a2-6)]GalNAc
# Summary of the method: as §1
# [20] = molecular target: Neu5Ac(a2-3)Gal(b1-4)Glc
# Summary of the method: as §1
# [21] = molecular target: Neu5Ac(a2-3)Gal(b1-4)GlcNAc
# Summary of the method: as §1
# [22] = molecular target: Neu5Ac(a2-3)Gal(b1-4)GlcNAc(b1-2)Man(a1-3)[GlcNAc(b1-2)Man(b1-4)GlcNAc(b1-2)Man(a1-6)]Man(b1-4)GlcNAc(b1-4)GlcNAc
# Summary of the method: as §1
# [23] = molecular target: Neu5Ac(a2-3)Gal(b1-4)GlcNAc(b1-2)Man(a1-3)[Neu5Ac(a2-6)Gal(b1-4)GlcNAc(b1-2)Man(a1-6)]Man(b1-4)GlcNAc(b1-4)GlcNAc
# Summary of the method: as §1
# [24] = molecular target: Neu5Ac(a2-3)Gal(b1-4)GlcNAc(b1-3)Gal(b1-3)GlcNAc
# Summary of the method: as §1
# [25] = molecular target: Neu5Ac(a2-3)Gal(b1-4)GlcNAc(b1-3)Gal(b1-4)GlcNAc
# Summary of the method: as §1
# [26] = molecular target: Neu5Ac(a2-3)Gal(b1-4)GlcNAc(b1-3)Gal(b1-4)GlcNAc(b1-3)Gal(b1-4)GlcNAc
# Summary of the method: as §1
# [27] = molecular target: Neu5Ac(a2-3)Gal(b1-4)GlcNAc(b1-3)Gal(b1-4)[Fuc(a1-3)]GlcNAc
# Summary of the method: as §1
# [28] = molecular target: Neu5Ac(a2-3)Gal(b1-4)GlcNAc(b1-6)[Gal(b1-3)]GalNAc
# Summary of the method: as §1
# [29] = molecular target: Neu5Ac(a2-3)Gal(b1-4)GlcNAc(b1-6)[Neu5Ac(a2-3)Gal(b1-3)]GalNAc
# Summary of the method: as §1
# [30] = molecular target: Neu5Ac(a2-3)Gal(b1-4)GlcNAc6S
# Summary of the method: as §1
# [31] = molecular target: Neu5Ac(a2-3)Gal(b1-4)[Fuc(a1-3)]GlcNAc
# Summary of the method: as §1
# [32] = molecular target: Neu5Ac(a2-3)Gal(b1-4)[Fuc(a1-3)]GlcNAc(b1-3)Gal
# Summary of the method: as §1
# [33] = molecular target: Neu5Ac(a2-3)Gal(b1-4)[Fuc(a1-3)]GlcNAc(b1-3)Gal(b1-4)GlcNAc
# Summary of the method: as §1
# [34] = molecular target: Neu5Ac(a2-3)Gal(b1-4)[Fuc(a1-3)]GlcNAc(b1-3)Gal(b1-4)[Fuc(a1-3)]GlcNAc(b1-3)Gal(b1-4)[Fuc(a1-3)]GlcNAc
# Summary of the method: as §1
# [35] = molecular target: Neu5Ac(a2-3)Gal(b1-4)[Fuc(a1-3)]GlcNAc(b1-6)[Gal(b1-3)]GalNAc
# Summary of the method: as §1
# [36] = molecular target: Neu5Ac(a2-3)Gal(b1-4)[Fuc(a1-3)]GlcNAc6S
# Summary of the method: as §1
# [37] = molecular target: Neu5Ac(a2-3)Gal6S(b1-4)GlcNAc
# Summary of the method: as §1
binder,measurement,setting,value
B1,glycan array binding signal (z-score),[1],-0.61
same,glycan array binding signal (z-score),[2],-0.817
same,glycan array binding signal (z-score),[3],1.08
same,glycan array binding signal (z-score),[4],-0.305
same,glycan array binding signal (z-score),[5],0.122
same,glycan array binding signal (z-score),[6],-0.66
same,glycan array binding signal (z-score),[7],1.01
same,glycan array binding signal (z-score),[8],0.759
same,glycan array binding signal (z-score),[9],-0.867
same,glycan array binding signal (z-score),[10],0.829
same,glycan array binding signal (z-score),[11],1.43
same,glycan array binding signal (z-score),[12],2.88
same,glycan array binding signal (z-score),[13],-0.09
same,glycan array binding signal (z-score),[14],-0.889
same,glycan array binding signal (z-score),[15],1.73
same,glycan array binding signal (z-score),[16],-0.943
same,glycan array binding signal (z-score),[17],0.959
same,glycan array binding signal (z-score),[18],-0.936
same,glycan array binding signal (z-score),[19],-0.754
same,glycan array binding signal (z-score),[20],0.297
same,glycan array binding signal (z-score),[21],0.272
same,glycan array binding signal (z-score),[22],1.13
same,glycan array binding signal (z-score),[23],-0.72
same,glycan array binding signal (z-score),[24],0.968
same,glycan array binding signal (z-score),[25],-0.627
same,glycan array binding signal (z-score),[26],1.93
same,glycan array binding signal (z-score),[27],-0.709
same,glycan array binding signal (z-score),[28],0.43
same,glycan array binding signal (z-score),[29],1.19
same,glycan array binding signal (z-score),[30],2.96
same,glycan array binding signal (z-score),[31],-0.14
same,glycan array binding signal (z-score),[32],-0.852
same,glycan array binding signal (z-score),[33],1.2
same,glycan array binding signal (z-score),[34],0.952
same,glycan array binding signal (z-score),[35],0.763
same,glycan array binding signal (z-score),[36],-0.146
same,glycan array binding signal (z-score),[37],1.83

# A different layout for some results above.
binder	measurement	setting	value
B1	glycan array binding signal (z-score)	[20]	0.297
same	glycan array binding signal (z-score)	[28]	0.43
same	glycan array binding signal (z-score)	[36]	-0.146
